Assay results published in US9096504B2, “Controlled chemical release of hydrogen sulfide” (Washington State University, priority 2010, dated 2015).
Some results were stated once for a whole list of compounds, not compound by compound.

Experiment: H2S release measurement in plasma (colorimetry method)
Type: in vitro ADME, bovine/calf
Conditions: plasma treated with NMM to block free cysteine
Description: It is known that plasma contains significant amount of free cysteine. We therefore measured H2S generation of 2-13 in plasma (containing ˜500 μM cysteine) using a colorimetry method.
To 0.5 mL of bovine/calf plasma was added […] containing zinc acetate (1% w/v, 100 μL) and trichloroacetic acid (10% w/v, 600 μL). The mixture was allowed to centrifuge for 10 min (5000 g). The precipitate was filtered out and 1.2 mL of the clear solution was transferred into a 2-mL vial containing N,N-dimethyl-1,4-phenylenediamine sulfate (150 μL, 20 mM) in 7.2 M HCl and ferric chloride (150 μL, 30 mM) in 1.2 M HCl. To five of these aliquots were added 10 μL, 20 μL, 25 μL, 30 μL, 40 μL methylene blue (MB^+) stock solution in H2O (1 mM), respectively. The absorbance (670 nm) of aliquots of the resulting solution (1.5 mL) was determined using a UV-VIS spectrometer. The concentration of MB^+ was then converted to the concentration of H2S according to the reaction equation shown above and the calibration curve was generated by plotting the absorbance versus [H2S].
To 2.0 mL of bovine/calf plasma (containing cysteine […]) was added 2 mL water solution containing 5a (25 μl, of 80 mM in DMSO). The solution was stirred at room temperature. Reaction aliquots (1 mL) were collected into 2-mL vials containing zinc acetate (1% w/v, 100 μL) and trichloroacetic acid (10% w/v, 600 μL) in every 5 minutes. The resulting mixture was centrifuged for 10 minutes (5000 g) and the precipitate was filtered. The clear solution (1.2 mL) was transferred to another 2-mL vial. Subsequently, N,N-dimethyl-p-phenylenediamine sulfate (20 mM, 150 μL) in 7.2 M HCl was added followed by FeCl3 (30 mM, 150 μL) in 1.2 M HCl, and absorbance (670 nm) of aliquots of the resulting solution (1.5 mL) was determined 20 minutes thereafter using a UV-Vis spectrometer.

H2S generation in plasma first treated with N-methylmaleimide (NMM), no H2S generation was observed:
Cc1ccccc1C(=O)SNC(=O)c1ccccc1 [Compound 6]
O=C(NSC(=O)c1ccc(C(F)(F)F)cc1)c1ccccc1 [Compound 4]
COc1cccc(C(=O)SNC(=O)c2ccccc2)c1 [Compound 10]
COc1ccccc1C(=O)SNC(=O)c1ccccc1 [Compound 9]
O=C(NSC(=O)c1ccc(F)cc1)c1ccccc1 [Compound 3]
Cc1ccc(C(=O)SNC(=O)c2ccccc2)cc1 [Compound 8]
COc1ccc(C(=O)SNC(=O)c2ccccc2)cc1 [Compound 11]
O=C(NSC(=O)c1cccc(Cl)c1)c1ccccc1 [Compound 5]
CN(C)c1ccc(C(=O)SNC(=O)c2ccccc2)cc1 [Compound 13]
Cc1cccc(C(=O)SNC(=O)c2ccccc2)c1 [Compound 7]
COc1ccc(C(=O)SNC(=O)c2ccccc2)c(OC)c1 [Compound 12]
O=C(NSC(=O)c1ccccc1)c1ccccc1 [Compound 2, N-(benzoylthio)benzamide]
